{"sequences": {"note": "Protein sequences, listed by entry. Tags and fused reporters are not part of them.", "UniProt P0AE72": "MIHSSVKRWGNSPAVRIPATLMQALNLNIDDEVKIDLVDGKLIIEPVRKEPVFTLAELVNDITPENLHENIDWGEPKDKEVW"}, "source": "paper PMC3924284", "molecular_target": "MazE antitoxin (6x histidine-MazE-3x FLAG, from pBAD24mazE) (E. coli) (UniProt P0AE72)", "test": "pull-down; purified MazE amine-coupled to Affi-Gel 10 beads; supernatant of the MazF-expressing cell lysate incubated with the beads 5 h at 4 °C; washed with coupling buffer (0.05 M sodium bicarbonate, 0.5 M NaCl, pH 8.3); eluted with 0.2 M glycine HCl pH 2.5; only the target purified", "note": "Results are given in words; binding and its absence hold for the method and conditions named. Binding seen in cells or lysates may run through a third protein. Some results given as binding are weak or reduced against the parent protein; the word gives no strength."}
{"substance": "E24A MazF (from UniProt P0AE70 1-111) (enzyme)", "values": [{"measurement": "binding", "result": "binds"}]}
